{
  "source": "patent US9333208B2",
  "about": "“HCN inhibitors affecting ganglion cell function and visual function” (Allergan, Inc., priority 2013, dated 2016)",
  "key": {"[1]": {"test_system": "retinal ganglion cell receptive field", "test": "Retinal ganglion cell receptive field recordings (VERIS multifocal stimulus)", "type": "cell-based, Dutch belted rabbits"}, "HCN channel current (Ih)": {"test_system": "HCN channel current (Ih)", "test": "HCN channel current (Ih) measurement, voltage clamp of retinal ganglion cells", "type": "cell-based, Brown Norway rats", "details": "5 uM; p<0.05 vs control, N=6; FIG. 8"}, "retinal ganglion cells": {"test_system": "retinal ganglion cells", "test": "Retinal ganglion cell input resistance measurement, voltage clamp", "type": "cell-based, Brown Norway rats", "details": "5 uM; P<0.05, N=6; FIG. 9"}, "sweep VEP acuity": {"test_system": "sweep VEP acuity", "test": "Sweep vision evoked potential (sVEP) measurements", "type": "in vivo, Dutch-belted rabbits", "details": "rabbit, P<0.05, N=4, FIG. 10"}, "[2]": {"details": "FIG. 6, concentration not given"}},
  "note": "At least one compound was matched to its structure with a doubt left.",
  "data": [
    {"compound": "CCN(c1ccccc1)c1cc(NC)[n+](C)c(C)n1.[Cl-]", "note": "[ZD7288, 4-Ethylphenylamino-1,2-dimethyl-6-methylaminopyrimidinium chloride]", "values": [
      {"measurement": "OFF retinal ganglion cell receptive field profile near the center of the receptive field", "setting": "[1]; 1 uM, multifocal stimulus probe, FIG. 7", "result": "significantly enhanced the receptive field profile"},
      {"measurement": "RGC receptive field profile: response near the receptive field center", "setting": "[1]; [2]", "result": "enhances the response near the receptive field center"},
      {"measurement": "RGC receptive field profile: surround", "setting": "[1]; [2]", "result": "without affecting the surround"},
      {"measurement": "retinal ganglion cell HCN mediated Ih current", "setting": "HCN channel current (Ih)", "result": "attenuated"},
      {"measurement": "retinal ganglion cell input resistance", "setting": "retinal ganglion cells", "result": "enhancement of input resistance"},
      {"measurement": "sweep VEP acuity", "setting": "sweep VEP acuity; high intravitreal dose of 30 uM", "result": "attenuated"},
      {"measurement": "sweep VEP acuity", "setting": "sweep VEP acuity; low intravitreal dose of 1 uM", "result": "enhanced"}
    ]}
  ]
}
